Measurements reported in article PMC11236974.
No constants are given. Whether binding was seen depends on the method and setting. In cells and extracts the contact can be indirect. Some results given as binding are weak or reduced against the parent protein; the word gives no strength. Tags and fused reporters may be left off the sequences shown.

T1: FliG of the polar flagellar system, full length (pulldown prey) (S. putrefaciens)
T1 sequence: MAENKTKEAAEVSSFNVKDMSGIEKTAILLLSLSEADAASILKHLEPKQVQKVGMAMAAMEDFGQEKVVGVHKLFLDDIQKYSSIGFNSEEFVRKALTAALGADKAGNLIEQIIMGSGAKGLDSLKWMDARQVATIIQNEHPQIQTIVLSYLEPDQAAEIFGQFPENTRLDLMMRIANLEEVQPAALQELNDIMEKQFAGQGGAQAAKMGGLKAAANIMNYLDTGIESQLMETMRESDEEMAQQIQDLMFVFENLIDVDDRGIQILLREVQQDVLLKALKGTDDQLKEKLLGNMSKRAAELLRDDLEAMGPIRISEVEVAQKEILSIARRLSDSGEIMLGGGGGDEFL


Molecular target: T1, FliG of the polar flagellar system, full length (pulldown prey) (S. putrefaciens)
Assay: pull-down; cultures of StrepII-tagged bait and His-tagged tested proteins combined and lysed; lysate on MagStrep Strep-Tactin XT beads, 30 min, 4 °C; three washes with SEC buffer; eluted with D-biotin; Coomassie-stained SDS-PAGE

| binding | Binder |
| --- | --- |
| binds | FliN (of FliM/N, pulldown) (protein, UniProt A0ABX8X9E3 1-127) MSTEDTGDDWAAAMAEQALEEANAVALDELVDDSQPISKADAAKLDTILDIPVTISMEVGRSFISIRNLLQLNQGSVVELDRVAGEPLDVMVNGTLIAHGEVVVVNDKFGIRLTDVISQTERIKKLK |
| binds | FliM (of FliM/N, pulldown) (protein, UniProt A0ABX8X8Z6 1-343) MSDLLSQDEIDALLHGVDDVDDDDDLDAASQDARSYDFSSQDRIVRGRMPTLEIVNERFARHLRISMFNMMRRAAEVSINGVQMLKFGEYVHTLFVPTSLNMVRFSPLKGTALITMEARLVFILVDNFFGGDGRFHAKIEGREFTPTERRIVQLLLKIIFEDYKDAWAPVMDVEFDYLDSEVNPAMANIVSPTEVVVINSFHIEVDGGGGDFHITMPYSMIEPIRELLDAGVQSDKQDTDMRWSQALHDEIMDVKVGFDACVVEHELTLKDVMNFKAGDIIPVELPEYIMMKIEDLPTYRCKMGRSRDNLALKIYEKIPRPETVKTELQLVTRKGKARDISEL |
